Test results published in patent CN113621066A.
No constants are given. Whether binding was seen depends on the method and setting. Some results given as binding are weak or reduced against the parent protein; the word gives no strength.

Protein sequences, listed by entry. Tags and fused reporters are not part of them. Residues count along the entry.
UniProt Q15116, residues 25-170: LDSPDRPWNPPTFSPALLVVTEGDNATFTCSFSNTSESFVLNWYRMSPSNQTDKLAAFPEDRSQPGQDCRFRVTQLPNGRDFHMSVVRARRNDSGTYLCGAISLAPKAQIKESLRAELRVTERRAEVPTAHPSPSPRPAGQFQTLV

Molecular target: PD-1抗原 (human) (UniProt Q15116)
Assay: ELISA, antibody 3-fold serial dilution from 3 μg/mL, 12 points

binding: binds
B1: 抗PD-1B8抗体 (antibody, V domains shown)
VH: EVQLVESGGGLVQPGGSLRLSCAASGFTFSSYDMSWVRQAPGKGLEWVSAISGGGRYTYYADSVKGRFTISRDNSKNTLYLQMNSLRAEDTAVYYCAVRFGESWFSYWGQGTTVTVSS
VL: DIQMTQSPSSLSASVGDRVTITCRASQGINNYLAWFQQKPGKAPKSLIYRASRLVSGVPSRFSGSGSGTDFTLTISSLQPEDFATYYCLQYDEFTLTFGQGTKLEIK
